Not every detail of the peptide structures is certain; ends, links or a residue may be inferred. Where a SMILES comes first, the peptide text is derived from it.
Assays:
[1] = test system: HT-1080 tumor cell invasion; assay: Cell invasion through Matrigel coated invasion chambers; format: cell-based, human; settings: 150 μM, 16 h
MMP-2 = target: T1, MMP-2 (Homo sapiens, UniProt P08253); assay: β-casein degradation assay; format: biochemical; settings: peptide 100 μM; β-casein 0.1 mg/ml, 2 h
T1 construct: purchased Roche
T1 sequence (P08253 110-660): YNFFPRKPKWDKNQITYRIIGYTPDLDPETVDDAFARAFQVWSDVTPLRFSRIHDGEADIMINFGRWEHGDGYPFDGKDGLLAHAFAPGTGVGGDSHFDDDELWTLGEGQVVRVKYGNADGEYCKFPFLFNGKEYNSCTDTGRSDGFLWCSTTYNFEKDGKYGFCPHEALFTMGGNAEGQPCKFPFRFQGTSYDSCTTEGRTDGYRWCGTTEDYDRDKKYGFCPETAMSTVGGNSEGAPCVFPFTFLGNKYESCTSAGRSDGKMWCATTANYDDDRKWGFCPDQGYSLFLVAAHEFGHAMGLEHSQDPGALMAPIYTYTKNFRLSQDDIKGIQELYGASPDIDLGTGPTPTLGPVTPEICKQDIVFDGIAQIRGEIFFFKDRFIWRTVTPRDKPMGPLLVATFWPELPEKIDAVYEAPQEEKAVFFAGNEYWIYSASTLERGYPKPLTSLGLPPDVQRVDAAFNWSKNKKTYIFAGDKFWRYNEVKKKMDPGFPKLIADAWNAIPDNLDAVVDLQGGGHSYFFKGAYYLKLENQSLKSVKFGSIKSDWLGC
Experimental: FIG. 3A and 3B. Activity and stability of the tryptophan analogue containing CTT peptides. (A) Inhibition of MMP-2 using β-casein (21 IcDa) as substrate. The peptides (100 μM) were incubated with MMP-2 and β-casein (0.1 mg/ml) for 2 h and samples run on a 15% SDS-PAGE gel. (B) iCTT, 5F-CTT or a negative control peptide CERGGLETSC at a 150 μM concentration was incubated in undiluted human serum for the indicated time periods at 37° C. Samples were withdrawn, stored frozen and blotted on a nitrocellulose membrane. The level of CTT was quantitated using polyclonal anti-CTT antibody. The blots were scanned and the results shown are means ±SD from triplicate measurements. The results were similar in two other experiments.
Gelatinase inhibition assays. Gelatiases proMMP-2 and proMMP-9 (Roche) were activated with p-aminophenylmercuric acetate or trypsin, respectively, and then incubated in the presence or absence of each peptide to be tested for 30 min. The gelatinase inhibitory activity was determined using the following three assays: (i) The degradation of biotinylated gelatin was examined using a gelatinase activity kit according to the manufacturer's instructions. (Roche). […] (iii) The degradation of β-casein was studied by incubating activated MMP-2 with 0.1 mg/ml concentration of β-casein for 2 h at 37° C., after which the samples were analyzed on a 15% SDS-PAGE gel.

Protein sequences, listed by entry. Tags and fused reporters are not part of them. Residues count along the entry.
UniProt P14780, 20-707 limits assumed: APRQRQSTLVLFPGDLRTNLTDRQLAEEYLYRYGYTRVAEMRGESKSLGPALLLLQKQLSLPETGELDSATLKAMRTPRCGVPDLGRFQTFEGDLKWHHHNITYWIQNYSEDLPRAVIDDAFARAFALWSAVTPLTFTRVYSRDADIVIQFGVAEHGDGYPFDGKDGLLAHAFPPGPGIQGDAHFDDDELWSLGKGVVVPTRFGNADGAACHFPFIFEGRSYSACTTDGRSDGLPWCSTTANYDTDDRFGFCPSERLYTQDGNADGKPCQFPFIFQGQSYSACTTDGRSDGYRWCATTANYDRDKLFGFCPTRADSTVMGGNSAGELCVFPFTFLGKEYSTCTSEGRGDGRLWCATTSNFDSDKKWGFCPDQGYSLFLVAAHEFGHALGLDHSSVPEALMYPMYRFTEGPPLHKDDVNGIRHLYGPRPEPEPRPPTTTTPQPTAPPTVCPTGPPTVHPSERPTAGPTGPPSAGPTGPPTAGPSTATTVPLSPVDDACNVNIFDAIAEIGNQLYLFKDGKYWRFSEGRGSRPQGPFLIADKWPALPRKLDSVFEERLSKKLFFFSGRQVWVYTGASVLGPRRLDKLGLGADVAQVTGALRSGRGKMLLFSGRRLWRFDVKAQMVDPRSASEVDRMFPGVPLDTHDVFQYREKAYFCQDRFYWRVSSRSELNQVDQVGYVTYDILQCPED

proMMP-9 = target: T2, proMMP-9 (Homo sapiens, UniProt P14780); assay: Phage ELISA: inhibition of phage binding to proMMP-9; settings: 15 μM peptide; 20 ng/well proMMP-9
T2 construct: purchased Roche

| SMILES | inhibition of cell invasion compared with iCTT ([1]; 10% heat-inactivated fetal calf serum) | inhibition of cell invasion compared with iCTT ([1]; 10% non-heated normal human serum) | inhibition of casein degradation by MMP-2 (MMP-2) | inhibition of binding of phage #43 to proMMP-9 (proMMP-9) | inhibition of binding of phage #63 to proMMP-9 (proMMP-9) |
| --- | --- | --- | --- | --- | --- |
| CC(C)C[C@@H]1NC(=O)[C@H]([C@@H](C)O)NC(=O)[C@H](Cc2ccccc2)NC(=O)CNC(=O)[C@H](Cc2c[nH]c3ccc(F)cc23)NC(=O)[C@H](Cc2c[nH]cn2)NC(=O)[C@H]([C@@H](C)O)NC(=O)[C@H]([C@@H](C)O)NC(=O)[C@@H](N)CSSC[C@@H](C(=O)O)NC1=O [5F-Trp containing peptide, CTTH(5FW)GFTLC] (HELM PEPTIDE1{C.T.T.H.[O=C([C@H](Cc1c[nH]c2ccc(F)cc12)N[*:1])[*:2]].G.F.T.L.C}$PEPTIDE1,PEPTIDE1,1:R3-10:R3$$$V2.0; N-terminus and C-terminus assumed) | activity similar to that of iCIT | significantly better inhibitor of cell invasion than iCTT | nearly complete inhibition | – | – |
| CC(C)C[C@@H]1NC(=O)[C@H]([C@@H](C)O)NC(=O)[C@H](Cc2ccccc2)NC(=O)CNC(=O)[C@H](Cc2c[nH]c3ccccc23)NC(=O)[C@H](Cc2c[nH]cn2)NC(=O)[C@H]([C@@H](C)O)NC(=O)[C@H]([C@@H](C)O)NC(=O)[C@@H](N)CSSC[C@@H](C(=O)O)NC1=O [CTT, CTTHWGFTLC] (HELM PEPTIDE1{C.T.T.H.W.G.F.T.L.C}$PEPTIDE1,PEPTIDE1,1:R3-10:R3$$$V2.0; bridges inferred) | – | – | – | no effect | no effect |
